Results of single-concentration screens

The values are deposited in ChEMBL (CHEMBL3988442, “University of Dundee, Small-Polar-MMV Screening Library” (2021)).

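Whole-parasite assay of Trypanosoma brucei over 72 hours; the read-out is not stated. Concentration: 30 µM. Direction is inferred from retests: higher values go with stronger inhibition. Values scatter widely below zero; nearly all retest evidence comes from the higher of the two concentrations used. About 64,000 compounds were tested under these conditions; 1.5% (about 940) showed 50% or more at least once.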

The filed quantity is “Percent Effect” (%).
How 0% and 100% were set is not recorded. Most values in the screen are low, and negative values occur.
The compounds are a random part of those screened.

| # | compound | Percent Effect |
|---|---|---|
| 1 | `O=C(Nc1nc2c(s1)CN(S(=O)(=O)C1CC1)CC2)c1ccc(=O)[nH]c1` | -30.43 |
| 2 | `Cc1nc(CN2CCC(C(=O)O)(n3ccc(C(C)C)n3)CC2)co1` | -19.35 |
| 3 | `CN(C)CC(C)(C)Cn1cnc(-c2ccccc2)c1-c1ccncc1` | -17.51 |
| 4 | `COc1cc(CNCc2c(C)nn(C)c2N(C)C)ccc1C` | -20.02 |
| 5 | `CCS(=O)(=O)N1CCN(C(=O)NC(C)C)CC2(CNC(=O)C2)C1` (stereo not given) | -27.03 |
| 6 | `CC(=O)N1CCOC2(CCCN(Cc3ccc(N(C)C)cc3)C2)C1` (stereo not given) | -16.51 |
| 7 | `CCCC(Nc1nc(COCC)nc2c1CCNCC2)c1nccn1C` (stereo not given) | -2.593 |
| 8 | `CNc1nc2c(s1)C(c1ccc(F)cc1Cl)CC(=O)N2` (stereo not given) | -21.46 |
| 9 | `O=C(O)C(F)(F)F.[H][C@@]12CN(CC3CC3)CC[C@]1([H])CN(c1cnccn1)C2` | -2.591 |
| 10 | `CN(C)CCn1ccnc1C1CCN(C(=O)CCc2cccnc2)CC1` | -8.016 |
| 11 | `COc1cc(CNCCc2nc(C)cs2)cc2c1OCCO2.Cl` | -20.46 |
| 12 | `O=C(C[S+]([O-])Cc1ccc(F)cc1Cl)N1CCc2sccc2C1` (stereo not given) | -2.834 |
| 13 | `COc1ccccc1NC(=O)NC1(c2noc(CN(C)C)n2)CCCC1` | 0.02098 |
| 14 | `Cc1cnn(CC(C)NCC(=O)Nc2ccc(Cl)cn2)c1` (stereo not given) | -73.48 |
| 15 | `N#Cc1ccc(N2CCN(c3ncccn3)CC2)c(C(F)(F)F)c1` | -68.08 |
| 16 | `[H][C@@]12CCN(S(=O)(=O)C3CC3)[C@@]1([H])CCN2C(=O)c1cnccn1` | -89.09 |
| 17 | `Cc1cc(N2CCCN(C(=O)Cc3cccnc3)CC2)ccn1` | -40.37 |
| 18 | `NC(=O)c1ccc(CN2CCCC(N3CCCCCC3)C2)cc1` (stereo not given) | -17.75 |
| 19 | `NC(=O)C(NC1CCN(Cc2ccc(F)cc2)CC1)c1ccccc1` (stereo not given) | -45 |
| 20 | `CN1CCC(N2CCC(CN(Cc3ccncc3)C3CCC3)CC2)CC1` | -8.321 |
| 21 | `CC(C)C(=O)NS(=O)(=O)c1ccc(F)c(C(F)(F)F)c1` | 11.55 |
| 22 | `[H][C@@]12CCCC[C@]1(O)CCN(C(=O)c1cc3ccccc3n1C)C2` | -43.15 |
| 23 | `O=C(NCCCN1CCCC1=O)c1nc(-c2ccc3cc[nH]c3c2)no1` | -31.29 |
| 24 | `CNS(=O)(=O)c1cc(C(=O)NC2COc3ccccc3C2)ccc1OC` (stereo not given) | -33.85 |
| 25 | `Cc1cc(NC(=O)CNC2CCc3ncnn3C2)on1` (stereo not given) | 0.8172 |
| 26 | `COc1ccc(C(=O)NCCC(N)=O)c(I)c1` | -12.74 |
| 27 | `O=C(CCc1cccs1)N1CCCC(n2ccnc2)C1` (stereo not given) | 37.83 |
| 28 | `Cc1nc(N(C)C)nc(C)c1NC(=O)c1ccccc1F` | -23.68 |
| 29 | `Cc1nc(CCC(=O)NC2CCC2)cc(C2CCCNC2)n1` (stereo not given) | 7.192 |
| 30 | `CC(C)NC(=O)N1CCOC2(CCCNC2)C1` (stereo not given) | -13.6 |
| 31 | `Cc1cccc(N2CCN(C(=O)CN3CCN(CCO)CC3)CC2)c1` | 4.974 |
| 32 | `C1CCCN(C2CCCN(Cc3noc(C4CC4)n3)C2)CC1` (stereo not given) | 49.07 |
| 33 | `Cc1ccc(N2CCC(c3nccn3Cc3cscn3)CC2)nn1` | 21.02 |
| 34 | `Cc1cccn2c(=O)cc(OC(=O)c3ccc(OC(C)C)cc3)nc12` | -50.64 |
| 35 | `O=C(O)C(F)(F)F.[H][C@@]12CN(c3ccc(C)nn3)C[C@@H](C(=O)NCC3CC3)[C@]1([H])CCO2` | -24.35 |
| 36 | `CC1CN(Cc2nccn2C)CCN1c1ccc2nncn2n1` (stereo not given) | 33.75 |
| 37 | `Cn1ncc2c1C(COCC1CC1)CN(c1ncc(F)cn1)C2` (stereo not given) | 6.893 |
| 38 | `COCCNC(=O)c1cc(COc2cncc(Cl)c2)on1` | -11.45 |
| 39 | `O=C(NCC1CN(c2ncccn2)Cc2nccn2C1)c1cccnc1.O=C(O)C(F)(F)F` (stereo not given) | -46.45 |
| 40 | `Cc1ccc(CNC2CC3(CCN(CCO)CC3)c3ccccc32)s1.O=C(O)C(F)(F)F.O=C(O)C(F)(F)F` (stereo not given) | 35.76 |
| 41 | `CN(CCCOc1ccccc1)Cc1nc2c(cnn2C)c(=O)[nH]1` | -10.55 |
| 42 | `Cc1ccc(Cc2cnc(NC(=O)C3CNC(=O)N3)s2)cc1F` (stereo not given) | 0.4784 |
| 43 | `CC1(CCC(=O)N2CCC(n3cc(C4(O)CCCC4)nn3)CC2)CC1` | -65.4 |
| 44 | `CC(=O)c1cc(CC(=O)NCc2ccc(CN(C)C)cc2)cs1` | 7.27 |
| 45 | `COc1ccccc1OCC(=O)NCC(O)(c1ccccc1)C1CC1` (stereo not given) | -54.01 |
| 46 | `COC(=O)CCNC(=O)c1nnn(-c2ccc(F)cc2)c1C1CC1` | -25.82 |
| 47 | `Cc1cn[nH]c1C1CCCN1Cc1ccc(F)c(F)c1` (stereo not given) | -9.016 |
| 48 | `COC(=O)c1ccc(C2CC(=O)Oc3cc(C)[nH]c(=O)c32)cc1` (stereo not given) | 10.06 |
| 49 | `COCC(=O)N1CCN(Cc2csc(-c3ncccn3)n2)CC1` | 17.02 |
| 50 | `COc1c(CNCCC(=O)Nc2cccc(C)n2)c(C(C)C)nn1C` | -39.67 |
| 51 | `O=C(c1ccco1)N1CCC12CCN(c1ncc(F)cn1)CC2` | -10.62 |
| 52 | `CNCCCNC1CCN(c2ccc(-n3ccnc3)cc2)CC1` | -16.45 |
| 53 | `CCC(C)N(Cc1cnc(NC(C)C)nc1)Cc1ccsc1` (stereo not given) | -19.7 |
| 54 | `[H][C@]12CN(c3ncc(F)cn3)C[C@@]1([H])S(=O)(=O)CC[C@@H]2C(=O)N(C)C` | -1.671 |
| 55 | `Cn1c(N)nnc1SCc1c(F)cccc1Br` | -45.07 |
| 56 | `Cn1ncc2c(N3CCS(=O)(=O)CC3)nc(C3CCCC3)nc21` | -30.67 |
| 57 | `Cc1occc1C(=O)N1CCC2(CCCN(c3ncc(F)cn3)C2)C1.O=C(O)C(F)(F)F` (stereo not given) | -25.24 |
| 58 | `Cc1ccc2c(c1)[C@@H](CC(=O)N1CCOCC1)CCO2` | -2.688 |
| 59 | `CC1c2ncc(COCC3CCOCC3)n2CCN1C(=O)c1ccco1` (stereo not given) | 32.2 |
| 60 | `CC(=O)N1CCCN(C(=O)NC(C)c2csc3ccccc23)CC1` (stereo not given) | 10.19 |
| 61 | `CNc1ncc(CN(C)Cc2cc(O)c3cc(F)ccc3n2)cn1` | -0.909 |
| 62 | `Cc1nc(C)n(CC2CCCN2CCCOc2ccc(F)cc2)n1` (stereo not given) | -3.18 |
| 63 | `O=C(c1cnccn1)N(CCO)Cc1cc(Br)ccc1F` | -12.32 |
| 64 | `O=C(Cn1cc(I)cn1)NCC1CCC1` | -35.63 |
| 65 | `COCCOc1ccc(NCc2cccc3cn[nH]c23)cn1` | -45.68 |
| 66 | `[H][C@@]12COC[C@]1(COCC1CC1)CN(S(=O)(=O)c1cccnc1)C2` | -30.08 |
| 67 | `Cc1ccccc1-n1ncc2c(=O)n(CCN3CCCCC3)cnc21` | -43.54 |
| 68 | `O=c1ccc(-c2cccs2)nn1CN1CCN(Cc2ccccc2)CC1` | 42.37 |
| 69 | `O=C(CN1C(=O)CCC1=O)N1CCOCC1` | -26.28 |
| 70 | `CN(C)S(=O)(=O)CCNc1ncc2c(n1)CCN2c1ccccc1` | -9.238 |
| 71 | `Cc1cc(NC(=O)CN2CCc3cnc(C(C)C)nc3C2)on1` | 2.789 |
| 72 | `COc1ncccc1CN1CCC2(CC1)COCCN2C.O=C(O)C(F)(F)F.O=C(O)C(F)(F)F` | -47.73 |
| 73 | `Clc1ccccc1CN1CCCC(c2nnc(-c3cnccn3)o2)C1` (stereo not given) | 10 |